Data taken from PubChem BioAssay AID2685 (National Center for Advancing Translational Sciences (NCATS), 2010).
The list shows a part of the results. Shown are side measurements of this screen, not its main read-out; they come without a call. Compounds called inactive in the main read-out are mostly missing here. The note in brackets gives the kind of curve behind each potency; many fits are weak.

Assay: qHTS Assay for Lipid Storage Modulators in Drosophila S3 Cells;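 on cell number change: cells counted by Cell Tracker Red CMTPX staining in the red channel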
Conditions: BODIPY lipid droplet fluorescence, 18-24 h; for cell number change: measured here: cell count max response, cells fed with added oleic acid
How it was run: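 Drosophila S3 cells got compounds at several concentrations plus oleic acid (400 uM solution). Laser-scanning cytometry with 488 nm excitation read lipid droplets at 500-530 nm and cells at 575-640 nm. Percent activity was relative to 20 uM Triacsin C.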

[1] = measured here: cell number channel AC50, cells fed with added oleic acid
[2] = measured here: lipid fluorescence (Fed channel) AC50, cells fed with added oleic acid

SMILES | cell number change [%] | AC50 [1] | AC50 [2]
COCc1cc(=O)[nH]c(Nc2nc(C)c3ccccc3n2)n1 | 11.9 | 1.16 µM [rising, full curve] | 2.06 µM [rising, partial curve]
CCOCC(=O)N1CCCC(C(=O)OCC)C1 (centres undefined) |  |  | 2.06 µM [falling, partial curve]
O=C(Nc1ccccc1C(=O)N1CCOCC1)C1CCCO1 (centres undefined) | -17.8 |  | 29.1 µM [falling, single point]
COC(=O)c1cc(NS(=O)(=O)c2ccc(N3CCOCC3)c([N+](=O)[O-])c2)cc(C(=O)OC)c1 | -28.9 |  | 32.6 µM [rising, single point]
COc1cccc(CN2CC(C(=O)N3CCCO3)CCC2=O)c1 (centres undefined) | 14.6 |  | 
CSc1ccc(CCNC(=O)c2ccc(CS(=O)Cc3ccc(Cl)cc3)o2)cc1 (centres undefined) |  |  | 11.6 µM [falling, partial curve, poor fit]
COc1cc(C(C#N)N2CCC(c3ccccc3)=N2)ccc1O (centres undefined) |  |  | 29.1 µM [rising, single point]
COc1ccc(S(=O)(=O)N2CCCC(C(=O)NCc3cccnc3)C2)cc1 (centres undefined) | 22.6 |  | 
CC(=O)Nc1nnc(SCC(=O)N2CCCc3ccccc32)s1 | 33.8 | 29.1 µM [rising, single point] | 
Cc1oc(/C=N/NC(=O)CN(c2ccccc2Cl)S(C)(=O)=O)cc1Br |  |  | 0.146 µM [falling, full curve, poor fit]
COc1cccc(-c2nc(=S)c3c(n2Cc2ccco2)CCCC3)c1 | -7.82 |  | 
O=C1CCCCCC1C1(O)C(=O)Nc2ccccc21 (centres undefined) | -10.2 |  | 0.651 µM [falling, full curve, poor fit]
COC(=O)c1nc(NC(=O)c2cc(OC)c(OC)c(OC)c2)n[nH]1 | 16.7 |  | 
N#Cc1c(C(F)(F)F)cc(-c2cccs2)nc1SCc1cccnc1 | -34.5 | 13 µM [falling, partial curve] | 6.51 µM [falling, full curve, poor fit]
Cc1ccc(N(C)S(=O)(=O)c2ccc(-c3ccc(=O)[nH]n3)s2)cc1C | 0.295 |  | 6.51 µM [rising, partial curve, poor fit]
O=C(NCCn1cc(SCc2ccccc2)c2ccccc21)c1ccccc1F | -24.4 |  | 1.16 µM [falling, single point]
Cc1nc2ccc(NS(=O)(=O)c3ccc(Br)cc3)cc2s1 | -30.3 | 29.1 µM [falling, single point] | 4.11 µM [falling, full curve, poor fit]
Clc1ccc2c(c1)nc1n2CCCC1 | -0.685 |  | 16.4 µM [rising, single point]
CCC1(O)CC(C(=O)OC)=NN1C(=O)c1ccccc1 (centres undefined) |  | 5.8 µM [rising, single point] | 6.51 µM [falling, single point]
CCOc1cc(NC(=O)C(C)C)c(OCC)cc1NC(=O)Nc1ccccc1 | -39.9 | 13 µM [falling, partial curve] | 

Three records picked at random from those above:
SMILES | cell number change [%] | AC50 [1] | AC50 [2]
Cc1oc(/C=N/NC(=O)CN(c2ccccc2Cl)S(C)(=O)=O)cc1Br |  |  | 0.146 µM [falling, full curve, poor fit]
CC(=O)Nc1nnc(SCC(=O)N2CCCc3ccccc32)s1 | 33.8 | 29.1 µM [rising, single point] | 
COc1ccc(S(=O)(=O)N2CCCC(C(=O)NCc3cccnc3)C2)cc1 (centres undefined) | 22.6 |  | 

(listing goes on)

SMILES | cell number change [%] | AC50 [1] | AC50 [2]
O=C(Cc1nn[nH]n1)Nc1cc(Cl)cc(Cl)c1 | 10.6 |  | 
CCC(CO)(CO)N(CC(=O)Nc1ccc(OC)cc1)CC(=O)Nc1ccc(OC)cc1 | -36.6 | 3.66 µM [falling, full curve] | 2.06 µM [falling, partial curve]
O=C(CCC(=O)N/N=C/c1c[nH]c2ccccc12)NCc1ccccc1 | 5.59 |  | 0.0651 µM [rising, full curve, poor fit]
O=C(Nc1ccc(F)cc1F)c1sccc1SCc1cccc(C(F)(F)F)c1 | -9.62 |  | 
CC(=O)Nc1nnc(SCC(=O)N2C(C)CCCC2C)s1 (centres undefined) | -2.56 |  | 
N=c1c(C(=O)NCc2ccccc2)cc2c(=O)n3ccccc3nc2n1Cc1ccco1 | 128 | 2.59 µM [rising, full curve] | 20.6 µM [rising, partial curve]
CC(C)c1cc(C(=O)OCC(=O)NC(=O)NCc2ccco2)c(O)c(C(C)C)c1 | -42.9 | 5.8 µM [falling, full curve] | 18.4 µM [falling, single point]
CC(C)(C)c1ccc(OCCC(=O)OCC(=O)N2c3ccccc3NC(=O)C2(C)C)cc1 | 129 | 14.6 µM [rising, partial curve] | 
CCc1cccc(OCCOCCN2CCCC2)c1 | -29.2 | 0.82 µM [falling, full curve, poor fit] | 0.116 µM [falling, full curve, poor fit]
CN1CCc2c(n(CC(O)CN(CCO)CCO)c3ccccc23)C1=O (centres undefined) | -59.2 | 2.59 µM [falling, partial curve] | 2.31 µM [falling, partial curve, poor fit]
Cc1nc(N2CCN(Cc3ccc4c(c3)OCO4)CC2)c2cc(-c3ccccc3)sc2n1 | 21.8 |  | 0.082 µM [rising, full curve, poor fit]
CCOC(=O)c1c(NCC(C)C)c2ccccc2[nH]c1=O | -11 | 1.84 µM [rising, partial curve] | 
CCOc1ccccc1N1CCN(S(=O)(=O)c2ccc(F)c(F)c2)CC1 | -7.91 |  | 0.82 µM [rising, full curve, poor fit]
C/C(CC(=O)NCc1ccccc1Cl)=N/NC(=O)c1ccccn1 | -25 |  | 
CC(C)c1nc2cc(C(=O)N3CCNC(=O)C3c3ccc(F)cc3)ccc2o1 (centres undefined) | -3.3 |  | 1.46 µM [rising, partial curve]
O=C(Nc1ccncc1)C1CCC(CNS(=O)(=O)c2cccc3nsnc23)CC1 (centres undefined) | -33.3 | 0.116 µM [falling, full curve, poor fit] | 29.1 µM [falling, single point]
COc1ccc(C(C(=O)NC(C)(C)C)N(C(=O)CCC(=O)Nc2ccccn2)C2CCCCC2)cc1 (centres undefined) | 5.88 |  | 0.13 µM [rising, partial curve, poor fit]
O=C(O)C1CCCN(S(=O)(=O)c2ccc(Cl)s2)C1 (centres undefined) | -13.5 |  | 
Cc1cc(C)nc(CCNC(=O)CC2C(=O)NCCN2Cc2ccc(F)cc2Cl)n1 (centres undefined) | 4.46 |  | 29.1 µM [rising, single point]
